Patent publication US20200283532A1 (Cancer Research Technology Limited, priority 2017, published 2020)

Experiment: general procedure: Fmoc solid-phase peptide synthesis; aminomethyl polystyrene resin (0.8 mmol/g) with HMPP linker, Rink amide or HMP; HBTU/DIPEA
Conditions: whole synthesis; for final HPLC purity: analytical RP-HPLC (XTerra C18); for final HPLC purity / isolated yield: scale of the general procedure 0.1 mmol

Substance	isolated mass	final HPLC purity	isolated yield
H2N-NK(Biotin)VPNLRGDLQV[cyclohexylalanine]AQKVART-OH	6.2 mg	>99%	2%
H2N-NK(Biotin)VPNLRGDLQVLAQ-N-MeKVART-OH	72.7 mg	>99%	30%
H2N-NK(Biotin)VPNLRGDLQV[norleucine]AQKVART-OH	18.7 mg	>99%	8%
N-NK(Biotin)VPNLRGDLQVLAQ[diaminobutyric acid]VART-OH	70.3 mg	>99%	29%
H2N-NK(Biotin)VPNLRGDLQV[adamantylglycine]AQKVART-OH	22.4 mg	>99%	9%
DTPA-nK(Biotin)VPNLRGDLQVLAQKVARt-OH	12.5 mg	>95%	4%
H2N-NK(Biotin)VPNLRGDLQV[homoleucine]AQKVART-OH	26.1 mg	>99%	11%
H2N-NK(Biotin)VPNLRGDLQVLAQKVART-OH	97.1 mg	>99%	50%
H2N-NK(Biotin)VPNLRGDLQVLAQ[diaminopropionic acid]VART-OH	59.9 mg	>99%	25%
H2N-NK(Biotin)VPNLRGDLQVLAQKVART-NH2	13.4 mg	>95%	5%
H2N-nK(Biotin)VPNLRGDLQVLAQKVARt-OH	36.4 mg	>95%	15%
H2N-NK(Biotin)VPNLRGDLQVLAQKVARt-OH	45.3 mg	>95%	19%
H2N-NK(Biotin)VPNLRGDLQVLAQ[ornithine]VART-OH	63.5 mg	>99%	26%
H2N-NK (Biotin) VPNLRGDLQV[norvaline]AQKVART-OH	19.5 mg	>99%	8%
H2N-nK(Biotin)VPNLRGDLQVLAQKVART-OH	47.7 mg	>95%	19%
DTPA-nK(Biotin)VPNLRGDLQVLAQKVART-OH	37.5 mg	>95%	13%
H2N-NK(Biotin)VPNLRGDLQV[2-amino-3-ethylpentanoic acid]AQKVART-OH	10.1 mg	>99%	4%
DTPA-GNK(Biotin)VPNLRGDLQVLAQKVART-OH	41.9 mg	>95%	15%
AcHN-NK(Biotin)VPNLRGDLQVLAQKVART-NH2	12.5 mg	>95%	5%
H2N-NK(Biotin)VPNLRGDLQV[aminoisobutyric acid]AQKVART-OH	16.6 mg	>99%	7%
H2N-NK(Biotin)VPNLRGDLQV[allylglycine]AQKVART-OH	5.5 mg	>99%	2%
H2N-NK(Biotin)VPNLRGDLQVLAQkVART-OH	54.3 mg	>99%	22%
H2N-NK (Biotin) VPNLRGDLQV[tert-butyl-alanine]AQKVART-OH	7.5 mg	>99%	3%
AcHN-NK(Biotin)VPNLRGDLQVLAQKVART-OH	30.1 mg	>99%	12%
